± gives the standard deviation of the averaged measurements. Differences between knockout arms are mostly noise.
System: SKBR3
Test: relative cell number vs DMSO control (72 h) (% of DMSO); higher = less growth inhibition (more cells)
Experimental: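 QMAP-Seq: a pool of 5 breast cancer cell lines (ZR-75-1, SKBR3, HCC-38, MDA-MB-231, BT-20), each carrying 12 doxycycline-inducible Cas9 sgRNA perturbations (11 knockouts plus non-targeting sgNT), was treated with compounds for 72 h at four 10-fold doses (10 nM-10 uM or 1 nM-1 uM range). Barcodes were amplified and sequenced, and cell number was interpolated from 293T spike-in standard curves. The result is expressed as % of the median of DMSO wells. Two biological replicates.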

[1] = sgRNA knockout: sgATF3, 1000 nM
[2] = sgRNA knockout: sgATF3, 10000 nM
[3] = sgRNA knockout: sgATF4, 1000 nM
[4] = sgRNA knockout: sgATF4, 10000 nM
[5] = sgRNA knockout: sgATF6, 1000 nM
[6] = sgRNA knockout: sgATF6, 10000 nM
[7] = sgRNA knockout: sgATG7, 1000 nM
[8] = sgRNA knockout: sgATG7, 10000 nM
[9] = sgRNA knockout: sgERN1, 1000 nM
[10] = sgRNA knockout: sgERN1, 10000 nM
[11] = sgRNA knockout: sgHSF1, 1000 nM
[12] = sgRNA knockout: sgHSF1, 10000 nM
[13] = sgRNA knockout: sgHSF2, 1000 nM
[14] = sgRNA knockout: sgHSF2, 10000 nM
[15] = sgRNA knockout: sgKEAP1, 100 nM
[16] = sgRNA knockout: sgKEAP1, 1000 nM
[17] = sgRNA knockout: sgKEAP1, 10000 nM
[18] = sgRNA knockout: sgNFE2L2, 10 nM
[19] = sgRNA knockout: sgNFE2L2, 100 nM
[20] = sgRNA knockout: sgNFE2L2, 1000 nM
[21] = sgRNA knockout: sgNFE2L2, 10000 nM
[22] = sgRNA knockout: sgSLC35F2, 10 nM
[23] = sgRNA knockout: sgSLC35F2, 100 nM
[24] = sgRNA knockout: sgSLC35F2, 1000 nM
[25] = sgRNA knockout: sgSLC35F2, 10000 nM
[26] = sgRNA knockout: sgXBP1, 1000 nM
[27] = sgRNA knockout: sgXBP1, 10000 nM

`CCn1c(=O)c2c(nc(/C=C/c3ccc(OC)c(OC)c3)n2C)n(CC)c1=O` [Istradefylline] showed a relative cell number (sgRNA knockout: sgATF3, 10 nM) of 103 ± 15, a relative cell number (sgRNA knockout: sgATF3, 100 nM) of 115 ± 17 and a relative cell number [1] of 81.4 ± 18. The relative cell number [2] was 123 ± 1.4, the relative cell number (sgRNA knockout: sgATF4, 10 nM) was 85.6 ± 16 and the relative cell number (sgRNA knockout: sgATF4, 100 nM) was 82.7 ± 2.4. It also gave a relative cell number [3] of 83.7 ± 8.7, a relative cell number [4] of 102 ± 10 and a relative cell number (sgRNA knockout: sgATF6, 10 nM) of 79 ± 2.6. It also gave a relative cell number (sgRNA knockout: sgATF6, 100 nM) of 81.7 ± 5.2, a relative cell number [5] of 83.7 ± 11 and a relative cell number [6] of 97.1 ± 5.6. It also gave a relative cell number (sgRNA knockout: sgATG7, 10 nM) of 82.4 ± 12, a relative cell number (sgRNA knockout: sgATG7, 100 nM) of 124 ± 25 and a relative cell number [7] of 78.8 ± 16. For the same compound, the relative cell number [8] was 117 ± 4.7, the relative cell number (sgRNA knockout: sgERN1, 10 nM) was 82.8 ± 6.8 and the relative cell number (sgRNA knockout: sgERN1, 100 nM) was 109 ± 22. For the same compound, the relative cell number [9] was 81 ± 23, the relative cell number [10] was 107 ± 13 and the relative cell number (sgRNA knockout: sgHSF1, 10 nM) was 80.7 ± 14. It also gave a relative cell number (sgRNA knockout: sgHSF1, 100 nM) of 92.7 ± 16, a relative cell number [11] of 95.6 ± 20 and a relative cell number [12] of 89.6 ± 9.2. The relative cell number (sgRNA knockout: sgHSF2, 10 nM) was 93.7 ± 20, the relative cell number (sgRNA knockout: sgHSF2, 100 nM) was 92.6 ± 6.1 and the relative cell number [13] was 92.6 ± 2.3. For the same compound, the relative cell number [14] was 79.8 ± 12, the relative cell number (sgRNA knockout: sgKEAP1, 10 nM) was 89 ± 9.9 and the relative cell number [15] was 83.5 ± 2.4. The relative cell number [16] was 70.4 ± 18, the relative cell number [17] was 84.3 ± 12 and the relative cell number [18] was 88 ± 10. For the same compound, the relative cell number [19] was 80.4 ± 8.3, the relative cell number [20] was 102 ± 2.4 and the relative cell number [21] was 96.8 ± 9.2. The relative cell number [22] was 87.6 ± 9.2, the relative cell number [23] was 70.2 ± 8.1 and the relative cell number [24] was 91.1 ± 4.7. For the same compound, the relative cell number [25] was 91.4 ± 37, the relative cell number (sgRNA knockout: sgXBP1, 10 nM) was 91 ± 11 and the relative cell number (sgRNA knockout: sgXBP1, 100 nM) was 119 ± 3.9. For the same compound, the relative cell number [26] was 89.2 ± 38 and the relative cell number [27] was 130 ± 12.

In the case of `Nc1nc(Cl)nc2c1ncn2[C@@H]1O[C@H](CO)[C@@H](O)[C@@H]1F` [Clofarabine], the relative cell number (sgRNA knockout: sgATF3, 10 nM) is reported as 118 ± 4, the relative cell number (sgRNA knockout: sgATF3, 100 nM) is reported as 41.6 ± 3.8 and the relative cell number [1] is reported as 13.1 ± 2.9. It also gave a relative cell number [2] of 12.7 ± 1.1, a relative cell number (sgRNA knockout: sgATF4, 10 nM) of 92.3 ± 26 and a relative cell number (sgRNA knockout: sgATF4, 100 nM) of 41.5 ± 6.1. For the same compound, the relative cell number [3] was 15.43 ± 0.057, the relative cell number [4] was 16.4 ± 6.8 and the relative cell number (sgRNA knockout: sgATF6, 10 nM) was 79.3 ± 3.7. For the same compound, the relative cell number (sgRNA knockout: sgATF6, 100 nM) was 40.55 ± 0.23, the relative cell number [5] was 14.1 ± 3.4 and the relative cell number [6] was 8.08 ± 6. The relative cell number (sgRNA knockout: sgATG7, 10 nM) was 72.7 ± 5.5, the relative cell number (sgRNA knockout: sgATG7, 100 nM) was 41.1 ± 11 and the relative cell number [7] was 10.3 ± 3.5. It also gave a relative cell number [8] of 15.1 ± 4, a relative cell number (sgRNA knockout: sgERN1, 10 nM) of 94.9 ± 22 and a relative cell number (sgRNA knockout: sgERN1, 100 nM) of 47.8 ± 5.5. For the same compound, the relative cell number [9] was 10.5 ± 5.8, the relative cell number [10] was 19.6 ± 3.3 and the relative cell number (sgRNA knockout: sgHSF1, 10 nM) was 92.5 ± 12. The relative cell number (sgRNA knockout: sgHSF1, 100 nM) was 50.6 ± 5.2, the relative cell number [11] was 15.2 ± 3.8 and the relative cell number [12] was 13.9 ± 1.3. The relative cell number (sgRNA knockout: sgHSF2, 10 nM) was 89 ± 8.1, the relative cell number (sgRNA knockout: sgHSF2, 100 nM) was 40 ± 10 and the relative cell number [13] was 13 ± 0.71. It also gave a relative cell number [14] of 19.4 ± 0.85, a relative cell number (sgRNA knockout: sgKEAP1, 10 nM) of 85.2 ± 16 and a relative cell number [15] of 53.8 ± 1.1. It also gave a relative cell number [16] of 15.1 ± 0.94, a relative cell number [17] of 15.2 ± 0.93 and a relative cell number [18] of 90.4 ± 5.2. For the same compound, the relative cell number [19] was 41.5 ± 4.8, the relative cell number [20] was 13.9 ± 5.1 and the relative cell number [21] was 17.1 ± 0.21. The relative cell number [22] was 68.2 ± 14, the relative cell number [23] was 34.9 ± 8.7 and the relative cell number [24] was 14.1 ± 3.3. The relative cell number [25] was 14.2 ± 1.3, the relative cell number (sgRNA knockout: sgXBP1, 10 nM) was 79.6 ± 5.3 and the relative cell number (sgRNA knockout: sgXBP1, 100 nM) was 38.1 ± 5.6. It also gave a relative cell number [26] of 11.3 ± 0.51 and a relative cell number [27] of 11.7 ± 2.9.

`CC(=O)Nc1nc(C)c(-c2ccc(Cl)c(S(=O)(=O)NCCO)c2)s1` [PIK93] was tested, and the relative cell number (sgRNA knockout: sgATF3, 10 nM) was 116 ± 21, the relative cell number (sgRNA knockout: sgATF3, 100 nM) was 109 ± 13 and the relative cell number [1] was 99.42 ± 0.62. It also gave a relative cell number [2] of 45.1 ± 1.9, a relative cell number (sgRNA knockout: sgATF4, 10 nM) of 116 ± 36 and a relative cell number (sgRNA knockout: sgATF4, 100 nM) of 101 ± 4.9. The relative cell number [3] was 85.3 ± 14, the relative cell number [4] was 46.7 ± 2.5 and the relative cell number (sgRNA knockout: sgATF6, 10 nM) was 102 ± 11. For the same compound, the relative cell number (sgRNA knockout: sgATF6, 100 nM) was 96 ± 8.5, the relative cell number [5] was 70.2 ± 3.3 and the relative cell number [6] was 47.9 ± 6. The relative cell number (sgRNA knockout: sgATG7, 10 nM) was 115.7 ± 0.74, the relative cell number (sgRNA knockout: sgATG7, 100 nM) was 84.3 ± 42 and the relative cell number [7] was 94.6 ± 17. It also gave a relative cell number [8] of 55.9 ± 20, a relative cell number (sgRNA knockout: sgERN1, 10 nM) of 135 ± 2.5 and a relative cell number (sgRNA knockout: sgERN1, 100 nM) of 122 ± 21. The relative cell number [9] was 83.5 ± 48, the relative cell number [10] was 51.67 ± 0.49 and the relative cell number (sgRNA knockout: sgHSF1, 10 nM) was 121 ± 17. The relative cell number (sgRNA knockout: sgHSF1, 100 nM) was 95.8 ± 0.33, the relative cell number [11] was 91.5 ± 2.6 and the relative cell number [12] was 43.7 ± 2.4. The relative cell number (sgRNA knockout: sgHSF2, 10 nM) was 107 ± 22, the relative cell number (sgRNA knockout: sgHSF2, 100 nM) was 91.9 ± 1.1 and the relative cell number [13] was 84.82 ± 0.12. It also gave a relative cell number [14] of 53.8 ± 3.4, a relative cell number (sgRNA knockout: sgKEAP1, 10 nM) of 106 ± 6.1 and a relative cell number [15] of 104 ± 19. It also gave a relative cell number [16] of 73 ± 13, a relative cell number [17] of 42.74 ± 0.17 and a relative cell number [18] of 105 ± 14. The relative cell number [19] was 85.7 ± 26, the relative cell number [20] was 72.7 ± 16 and the relative cell number [21] was 45 ± 6.2. The relative cell number [22] was 110 ± 16, the relative cell number [23] was 109 ± 15 and the relative cell number [24] was 68.2 ± 4.2. The relative cell number [25] was 57.6 ± 7.2, the relative cell number (sgRNA knockout: sgXBP1, 10 nM) was 83.9 ± 12 and the relative cell number (sgRNA knockout: sgXBP1, 100 nM) was 96.7 ± 35. The relative cell number [26] was 66.8 ± 15 and the relative cell number [27] was 50.5 ± 3.8.

From the supplement of paper PMC7661543
